Patent US7094524B2, “Thermally development imaging materials having backside stabilizers” (Eastman Kodak Company, priority 2003, dated 2006)

Assay: Shelf aging of photothermographic material with amine in backside coating, Example 14 (TABLE III)
Details: Level 0.5; amine on backside of the photothermographic material; aged 70° F. (21° C.) at 80% RH, 3 months

For N=C(Nc1ccccc1)Nc1ccccc1 [AB-8], the “Δ Dmin” value was −90%.

In the case of C1CCC2=NCCCN2CC1 [AB-6, 1,8-diazabicyclo[5.4.0]undec-7-ene], the “Δ Dmin” value is reported as −80%.
